# These are yes or no findings as the source states them, for the method shown. In cells and extracts the contact can be indirect. Some results given as binding are weak or reduced against the parent protein; the word gives no strength. Tags and fused reporters may be left off the sequences shown.
# Amino acid sequences for entries named in this document (tags omitted).
# UniProt P11166: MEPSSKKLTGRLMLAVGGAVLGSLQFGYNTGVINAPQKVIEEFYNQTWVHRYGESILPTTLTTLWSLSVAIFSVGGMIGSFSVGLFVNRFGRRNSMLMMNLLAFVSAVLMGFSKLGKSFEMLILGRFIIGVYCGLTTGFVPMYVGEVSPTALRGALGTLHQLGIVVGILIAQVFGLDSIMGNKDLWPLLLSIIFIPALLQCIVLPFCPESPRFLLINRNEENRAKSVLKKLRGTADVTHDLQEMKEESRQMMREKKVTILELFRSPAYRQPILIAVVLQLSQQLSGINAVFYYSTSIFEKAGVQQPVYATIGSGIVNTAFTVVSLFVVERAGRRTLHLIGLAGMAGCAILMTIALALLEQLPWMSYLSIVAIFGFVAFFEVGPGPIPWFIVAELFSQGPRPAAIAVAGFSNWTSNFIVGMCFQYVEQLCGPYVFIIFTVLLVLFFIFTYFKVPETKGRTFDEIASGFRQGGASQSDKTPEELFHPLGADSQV
# Tests used:
# [1] = biological target: T1, flag-NDRG2 (from pCMV-flag-NDRG2) (human) (UniProt Q9UN36); test: co-IP; HEK293 cells cotransfected with pCMV-flag-NDRG2 and pCMV-eGFP-GLUT1; lysis buffer 150 mM NaCl, 50 mM Tris-HCl pH 7.4, 1% Lubrol, 5 mM EDTA, protease inhibitors; antibody with protein A or G sepharose, 8 hours at 4°C; immunoblot
# T1 sequence: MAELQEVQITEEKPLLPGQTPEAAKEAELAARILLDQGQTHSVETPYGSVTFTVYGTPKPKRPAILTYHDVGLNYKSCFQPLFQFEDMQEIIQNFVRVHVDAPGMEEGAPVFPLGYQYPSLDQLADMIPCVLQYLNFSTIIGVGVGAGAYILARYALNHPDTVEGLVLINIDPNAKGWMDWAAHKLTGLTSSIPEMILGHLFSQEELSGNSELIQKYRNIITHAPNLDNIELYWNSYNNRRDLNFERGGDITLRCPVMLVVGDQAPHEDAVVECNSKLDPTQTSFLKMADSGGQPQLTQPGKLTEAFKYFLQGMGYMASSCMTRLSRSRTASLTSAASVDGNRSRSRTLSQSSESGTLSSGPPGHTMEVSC
# [2] = biological target: T2, N-myc downstream-regulated gene 2 (NDRG2) protein, endogenous in SK-BR-3 cells (human (endogenous in SK-BR-3)) (UniProt Q9UN36); test: co-IP; endogenous proteins in whole-cell lysates of untransfected SK-BR-3 cells; lysis buffer 150 mM NaCl, 50 mM Tris-HCl pH 7.4, 1% Lubrol, 5 mM EDTA, protease inhibitors; anti-GLUT1 or anti-NDRG2 antibody with protein A sepharose, 8 hours at 4°C; immunoblot
# T2 sequence: T1 sequence
binding [1],binding [2],Substance
binds,,eGFP-GLUT1 (from pCMV-eGFP-GLUT1) (from UniProt P11166 1-492)
,binds,"glucose transporter 1 (GLUT1), endogenous in SK-BR-3 cells (from UniProt P11166 1-492)"

# From PMC4053222
